{"sequences": {"note": "The chains behind the UniProt entries cited, without tags or fusion partners.", "UniProt Q01118, whole entry F724Q/I1189T/I1492T": "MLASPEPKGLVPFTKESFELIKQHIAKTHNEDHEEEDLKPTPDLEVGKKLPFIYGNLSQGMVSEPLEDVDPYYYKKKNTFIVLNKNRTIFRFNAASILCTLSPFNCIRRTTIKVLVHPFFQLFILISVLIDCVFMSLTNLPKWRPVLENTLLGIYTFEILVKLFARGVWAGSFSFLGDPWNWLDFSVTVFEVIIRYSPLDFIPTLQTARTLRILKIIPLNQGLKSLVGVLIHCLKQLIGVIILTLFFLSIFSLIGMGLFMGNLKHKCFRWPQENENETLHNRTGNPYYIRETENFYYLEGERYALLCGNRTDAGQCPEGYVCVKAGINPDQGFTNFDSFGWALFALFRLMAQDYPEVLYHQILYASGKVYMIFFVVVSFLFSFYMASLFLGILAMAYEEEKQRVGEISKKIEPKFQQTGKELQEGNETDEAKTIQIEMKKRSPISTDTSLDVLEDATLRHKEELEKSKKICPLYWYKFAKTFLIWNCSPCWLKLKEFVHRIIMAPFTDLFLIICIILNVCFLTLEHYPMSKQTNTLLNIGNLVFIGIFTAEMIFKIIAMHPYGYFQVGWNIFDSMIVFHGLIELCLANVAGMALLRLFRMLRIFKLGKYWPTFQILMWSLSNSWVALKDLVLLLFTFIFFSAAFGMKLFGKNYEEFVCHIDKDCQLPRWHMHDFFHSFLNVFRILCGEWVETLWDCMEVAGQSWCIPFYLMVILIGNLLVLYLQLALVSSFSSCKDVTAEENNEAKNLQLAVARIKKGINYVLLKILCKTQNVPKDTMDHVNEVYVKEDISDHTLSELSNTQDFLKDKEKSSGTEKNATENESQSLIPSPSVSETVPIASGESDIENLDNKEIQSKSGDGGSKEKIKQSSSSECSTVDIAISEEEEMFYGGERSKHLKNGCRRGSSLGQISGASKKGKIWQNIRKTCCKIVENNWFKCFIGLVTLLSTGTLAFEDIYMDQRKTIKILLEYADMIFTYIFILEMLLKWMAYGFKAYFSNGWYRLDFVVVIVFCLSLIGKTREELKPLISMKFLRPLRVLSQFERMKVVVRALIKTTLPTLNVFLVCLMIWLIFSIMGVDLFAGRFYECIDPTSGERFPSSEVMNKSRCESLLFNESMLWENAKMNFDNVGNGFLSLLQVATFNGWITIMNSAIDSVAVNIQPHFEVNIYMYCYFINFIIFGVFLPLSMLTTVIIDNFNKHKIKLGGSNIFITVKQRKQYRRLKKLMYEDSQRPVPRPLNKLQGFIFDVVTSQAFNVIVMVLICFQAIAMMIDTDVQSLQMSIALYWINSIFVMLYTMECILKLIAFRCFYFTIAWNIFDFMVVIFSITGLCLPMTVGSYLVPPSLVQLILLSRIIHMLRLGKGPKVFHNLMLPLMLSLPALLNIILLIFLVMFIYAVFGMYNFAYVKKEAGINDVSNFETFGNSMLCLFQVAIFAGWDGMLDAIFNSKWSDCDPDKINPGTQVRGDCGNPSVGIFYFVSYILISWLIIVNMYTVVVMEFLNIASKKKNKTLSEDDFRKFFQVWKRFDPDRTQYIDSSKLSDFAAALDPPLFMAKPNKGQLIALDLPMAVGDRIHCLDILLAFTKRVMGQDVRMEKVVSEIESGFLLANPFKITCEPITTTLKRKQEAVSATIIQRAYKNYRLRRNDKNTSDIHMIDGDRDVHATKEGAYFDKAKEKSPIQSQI"}, "source": "patent US20250164502A1", "about": "“Mutant Human Nax Proteins and Screening Methods” (Genentech, Inc., priority 2021, published 2025)", "biological_target": "T1, human NaX-QTT (Homo sapiens, UniProt Q01118, F724Q/I1189T/I1492T)", "T1 construct": "expressed in transfected cells; host or cells: Xenopus laevis oocytes injected with in vitro transcribed capped RNA", "test": "Two-electrode voltage-clamp of Xenopus laevis oocytes expressing human NaX-QTT with blockers or multivalent cations", "format": "cell-based", "method": "FIGS. 5A-C show pharmacology of the human NaX-QTT channel. FIG. 5A, left and middle panels, show representative I-V currents from HEK293 cells expressing human NaX-QTT with indicated extracellular monovalent cations with or without indicated amounts of CaCl2 in the extracellular solution. Voltage ramp from −80 to +80 mV was applied.\nOocytes were prepared as previously described^68. Healthy-looking stage V-VI oocytes were injected with 2.5-40 ng of RNA (in 5-41 nL) using a Nanoliter 2010 injector (World Precision Instruments). When excluding one or more construct, an equivalent volume of nuclease-free water was added to maintain a constant RNA concentration across different construct combinations. Injected oocytes were kept at 18° C., 140 rpm, in ND96 supplemented with 50 μg/mL gentamicin and 50 μg/mL tetracycline (in mM: 96 NaCl, 2 KCl, 1 MgCl2, 1.8 CaCl2), 2.5 sodium pyruvate, 0.5 theophylline, 5 HEPES; pH 7.4 with NaOH) for two to five days. […] The voltage dependence of ion current was determined using a protocol consisting of steps from a holding potential of 0 mV to voltages ranging from +80 to −100 mV for 1 s in 20 mV increment.", "data": [{"smiles": "CCN(CC)CC(=O)Nc1c(C)cccc1C", "note": "[lidocaine]", "values": [{"measurement": "block of NaX-QTT currents", "value": "effective at blocking"}]}]}
